# PubChem BioAssay AID504467 (National Center for Advancing Translational Sciences (NCATS), 2011)
# Out of some 330,000 compounds screened, about 7,700 (2.3%) were called active. Inconclusive results, whose numbers are uncertain, are shown with a selection of clear calls. Calls come from the whole dose curve; as a rule, active = well fitted inhibition curve with a large enough effect; inconclusive = small, poorly fitted or top-dose-only effect, or effect the other way; inactive = flat fitted curve, though single readings scatter. Potencies of inconclusive entries are doubtful fits and often do not repeat.
# Assay: qHTS screen for small molecules that inhibit ELG1-dependent DNA repair in human embryonic kidney (HEK293T) cells expressing luciferase-tagged ELG1; note: nearly all actives have a fitted effect of over 55% in size
# Conditions: HEK293T ELG1-luciferase reporter, luminescence, 16 h, DNA damage induced by 5-fluorouridine; activity change, negative = inhibition: at 46.1 µM (top of the series)
# Procedure, shortened: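 Step one: seed 2,000 cells per well. Step two: pin-transfer compound or DMSO alongside 5-fluorouridine. Step three: incubate 16 hr, 37 °C, 5% CO2. Step four: add ONE-Glo, wait 30 min, read luminescence.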
# % is set by controls: 0 for no effect and ±100 for the full control effect; potency is the fitted concentration of half-maximal effect.
SMILES,Potency,"activity change, negative = inhibition"
Cc1ccccc1Nc1nc(N)nc(CSc2nc3ccccc3c(=O)n2CCCO)n1,"inconclusive: 20.6 µM [inhibitor, single point]",–
Cc1ccc(Br)cc1S(=O)(=O)N1CCN(c2ccccc2)CC1,inactive,–
Cc1cc(C(=O)CN2C(=O)NC(C)(c3cc(F)ccc3F)C2=O)c(C)n1C1CC1 (configuration not stated),inactive,–
O=C(COc1ccc(S(=O)(=O)N2CCOCC2)cc1)NCc1ccccn1,inactive,–
Cc1occc1C(=O)NNC(=S)NC(=O)COc1ccc(Cl)cc1Cl,"inconclusive: 14.6 µM [activator, partial curve]",–
COc1ccc(C(C)=O)cc1COC(=O)c1c(C)noc1C,inactive,–
Cc1cc(C)n2ncc(-c3cccc(Br)c3)c2n1,–,inconclusive: 27.9% [activator]
NNc1nc2sc3c(c2c(=O)[nH]1)CCc1ccccc1-3,inactive,–
Cc1cccc(OCCc2nnc(N)s2)c1C,"inconclusive: 16.4 µM [activator, single point]",–
CCOc1ccc(S(=O)(=O)Nc2cccc(-c3ccc(N4CCCCCC4)nn3)c2)cc1,"inconclusive: 20.6 µM [activator, single point]",–
O=C(c1ccc2nc(N3CCCCC3)sc2c1)N1CCN(c2ccccn2)CC1,"inconclusive: 18.4 µM [inhibitor, single point]",–
COc1ccc(-c2nc3n(n2)C(c2ccccc2Cl)C(C(N)=O)=C(C)N3)cc1 (configuration not stated),"inconclusive: 23.1 µM [activator, single point]",–
O=C(NCC(=O)N(c1cccc(F)c1)C(C(=O)NC1CCCC1)c1cccnc1)c1ccco1 (configuration not stated),inactive,–
O=C(Nc1cccc(NC(=O)c2cccs2)c1)c1ccc(Br)cc1,"inconclusive: 29.1 µM [inhibitor, single point]",–
CN1CCN(C(=O)CCN2C(=O)S/C(=C/c3ccc(Cl)cc3)C2=O)CC1,inactive,–
C[C@]12CCC(=O)C=C1CC[C@@H]1[C@@H]2[C@@H](O)C[C@@]2(C)[C@H]1CC[C@]2(O)C(=O)CO,"inconclusive: 9.2 µM [activator, partial curve, poor fit]",–
Cc1nn(Cc2ccc(C(=O)NC(C)(C)C)o2)c(C)c1Br,"inconclusive: 3.26 µM [inhibitor, full curve, poor fit]",–
Cc1ccc(C(=O)NCCc2cccc(Cl)c2)cc1[N+](=O)[O-],"inconclusive: 18.4 µM [activator, partial curve]",–
CCOc1ccc(-n2c(SC(C)C)nc3c(c2=O)SCC3)cc1,"inconclusive: 18.4 µM [inhibitor, single point]",–
COc1ccc(C(=O)Nc2ccccc2N2CCN(C(=O)C(C)C)CC2)cc1Cl,active: 23.1 µM,–
C/C(=N\NC(=O)c1ccccc1)c1c(C)[nH]n(-c2ccccc2)c1=O,"inconclusive: 18.3 µM [inhibitor, single point]",–
O=C(Nc1ncccc1O)c1ccc2c(c1)OCO2,"inconclusive: 4.61 µM [activator, partial curve]",–
COc1cc(C2Sc3ccccc3NC3=C2C(=O)OC3)cc(OC)c1OC (configuration not stated),inactive,–
COc1cccc(Oc2cc(Cl)nc(N)n2)c1,"inconclusive: 18.3 µM [activator, partial curve, poor fit]",–

# Three entries from above, arranged by length of the SMILES, largest number first.
SMILES,Potency,"activity change, negative = inhibition"
C/C(=N\NC(=O)c1ccccc1)c1c(C)[nH]n(-c2ccccc2)c1=O,"inconclusive: 18.3 µM [inhibitor, single point]",–
Cc1ccc(C(=O)NCCc2cccc(Cl)c2)cc1[N+](=O)[O-],"inconclusive: 18.4 µM [activator, partial curve]",–
Cc1ccc(Br)cc1S(=O)(=O)N1CCN(c2ccccc2)CC1,inactive,–

# Further compounds follow:

SMILES,Potency,"activity change, negative = inhibition"
Cc1cc(C(=O)OCC(=O)NC2(C#N)CCCCC2)c(C)o1,inactive,–
CCNCc1cc(Cl)c(OCc2ccccc2)c(OCC)c1,"inconclusive: 14.6 µM [inhibitor, partial curve]",–
CN1CCc2c(OCc3ccc(F)cc3)cccc2C1=O,inactive,–
Cc1ccc2c(COC(=O)c3ccccc3OC(F)F)cc(=O)oc2c1,"inconclusive: 23.1 µM [activator, partial curve, poor fit]",–
COc1ccc(C2Nc3ccccc3C(=O)N2c2ccccc2)cc1CSc1ccccn1 (configuration not stated),inactive,–
CN1CCc2c(sc3c2c(=O)n(-c2ccccc2)c2nnc(SCc4ccc(Cl)cc4)n32)C1,inactive,–
NNc1nc(-c2ccccc2)cc(-c2ccccc2)n1,"inconclusive: 20.6 µM [inhibitor, single point]",–
CCNC(=S)NNc1nnc(-c2ccccc2)c(-c2ccccc2)n1,"inconclusive: 1.26 µM [activator, single point]",–
O=C(Nc1nc(-c2ccc(Cl)s2)cs1)c1ccccc1,inactive,–
CCCc1nc2ccc([N+](=O)[O-])cc2[nH]1,inactive,–
Oc1ccc(/C=C/c2ccc3cccc(O)c3n2)cc1Br,"inconclusive: 18.3 µM [activator, single point]",–
CCn1ccc(C(=O)Nc2ncc(C)s2)n1,"inconclusive: 4.11 µM [activator, partial curve]",–
COc1ccc(C)cc1NC(=O)Nc1ccc2c(c1)CCC2,inactive,–
CCOc1ccc(C(C)=O)cc1N1C(=O)C2C3C=CC(O3)C2C1=O (configuration not stated),"inconclusive: 4.61 µM [inhibitor, single point]",–
COC(=O)CCC(=O)Nc1cc(OC)c(OC)cc1Cc1nccc2cc(OC)c(OC)cc12,inactive,–
CCn1nc(C)c(NC(=O)CC23CC4CC(CC(C4)C2)C3)c1C,inactive,–
CCN(CC)CCN1C(=O)C(=O)/C(=C(/O)c2cnn(-c3ccccc3)c2C)C1c1ccc(C)o1 (configuration not stated),"inconclusive: 16.4 µM [activator, single point]",–
CC(C)Cc1nnc(NC(=O)CSc2nc(O)c(-c3ccccc3)c(=O)[nH]2)s1,"inconclusive: 11.6 µM [activator, partial curve, poor fit]",–
Cc1ccc(-n2c(C)cc(/C=C3\SC(=O)NC3=O)c2C)cc1,"inconclusive: 10.3 µM [activator, partial curve]",–
Cc1ccc(OCc2ccc(C(=O)NCC3CCCO3)cc2)cc1 (configuration not stated),"inconclusive: 13 µM [inhibitor, partial curve]",–
CC(C(=O)Nc1nc(-c2ccc(F)cc2)cs1)N1C(=O)C2CC=CCC2C1=O (configuration not stated),"inconclusive: 22.4 µM [inhibitor, single point]",–
CN(CC(=O)Nc1ccccc1N1CCOCC1)S(=O)(=O)c1ccc(Cl)cc1,active: 25.9 µM,–
Cc1ccccc1/C=N/NC(=O)c1sccc1C,"inconclusive: 7.31 µM [activator, partial curve]",–
